{"source": "PubChem BioAssay AID1053208 (Peter MacCallum Cancer Centre, 2014)", "purpose": "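Genes whose silencing cuts survival of bone tumour cells only with doxorubicin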 (primary screen)", "system": "mouse osteosarcoma cells, early-passage culture from an engineered mouse model of fibroblastic bone tumour", "reagents": "siRNA pool against mouse genes, 40 nM", "timing": "about 120 h (48 h before drug, then 72 h with drug)", "conditions": "doxorubicin 100 nM for 72 h, roughly 30-40% inhibitory dose", "measurement": "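Luminescent ATP signal taken as viability with or without 100 nM doxorubicin for 72 h; mean of two wells set against non-targeting siRNA and turned into robust z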", "reading the numbers": "viability z-score with doxorubicin: higher = more viable cells under doxorubicin; viability z-score without drug: higher = more viable cells with knock-down alone", "call rule": "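a pool counts as active when its viability z-score with doxorubicin is -2 or below and its z-score without drug lies between -2 and 2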", "note": "The whole screen tested about 17,000 reagents; below is a random part of them. Over the whole deposit, 788 (4.7%) are marked active. 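Calls rest on z-score classes alone; an extra cut-off of viability at most 70% of control was not applied to them.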 Unmarked entries are inactive. A reagent listed more than once was tested more than once; the source does not tell the runs apart. Not all columns of the deposit are shown. No sequences are given here."}
{"target":"Dnah14 (dynein, axonemal, heavy chain 14)","combined z-score class":"no change with or without drug","viability z-score with doxorubicin":0.45,"viability z-score without drug":-0.34}
{"target":"Htatip2 (HIV-1 Tat interactive protein 2)","combined z-score class":"no change with or without drug","viability z-score with doxorubicin":0.79,"viability z-score without drug":1.52}
{"target":"Dkkl1 (dickkopf-like 1)","combined z-score class":"no change with or without drug","viability z-score with doxorubicin":-0.34,"viability z-score without drug":0.17}
{"target":"Zfp85 (zinc finger protein 85)","combined z-score class":"no change with or without drug","viability z-score with doxorubicin":-0.45,"viability z-score without drug":1.85}
{"target":"Tmem82 (transmembrane protein 82)","combined z-score class":"no change with or without drug","viability z-score with doxorubicin":-1.12,"viability z-score without drug":1.01}
{"target":"Or4d1 (olfactory receptor family 4 subfamily D member 1)","combined z-score class":"no change with or without drug","viability z-score with doxorubicin":-1.01,"viability z-score without drug":-0.17}
{"target":"Castor2 (cytosolic arginine sensor for mTORC1 subunit 2)","combined z-score class":"no change with or without drug","viability z-score with doxorubicin":0.67,"viability z-score without drug":1.18}
{"target":"Hprt1 (hypoxanthine phosphoribosyltransferase 1)","combined z-score class":"no change with or without drug","viability z-score with doxorubicin":-0.11,"viability z-score without drug":-0.84}
{"target":"Wdhd1 (WD repeat and HMG-box DNA binding protein 1)","combined z-score class":"no change with or without drug","viability z-score with doxorubicin":-1.12,"viability z-score without drug":-0.17}
{"target":"Ccdc14 (coiled-coil domain containing 14)","combined z-score class":"high cell count without drug only","viability z-score with doxorubicin":1.35,"viability z-score without drug":2.19}
{"target":"Mid1ip1","combined z-score class":"no change with or without drug","viability z-score with doxorubicin":-0.22,"viability z-score without drug":-0.51}
{"target":"4931429L15Rik (RIKEN cDNA 4931429L15 gene)","combined z-score class":"no change with or without drug","viability z-score with doxorubicin":1.24,"viability z-score without drug":-0.17}
{"target":"Cep70 (centrosomal protein 70)","combined z-score class":"no change with or without drug","viability z-score with doxorubicin":0.9,"viability z-score without drug":-0.51}
{"target":"Cdk19 (cyclin dependent kinase 19)","combined z-score class":"no change with or without drug","viability z-score with doxorubicin":-0.22,"viability z-score without drug":0.84}
{"target":"Cdk19 (cyclin dependent kinase 19)","combined z-score class":"no change with or without drug","viability z-score with doxorubicin":-0.22,"viability z-score without drug":0.17}
{"target":"Ifi27 (interferon, alpha-inducible protein 27)","combined z-score class":"high cell count without drug only","viability z-score with doxorubicin":0.22,"viability z-score without drug":2.02}
{"target":"Pcdhb3 (protocadherin beta 3)","combined z-score class":"high cell count without drug only","viability z-score with doxorubicin":1.12,"viability z-score without drug":2.53}
{"target":"Fgg (fibrinogen gamma chain)","combined z-score class":"no change with or without drug","viability z-score with doxorubicin":-0.67,"viability z-score without drug":-0.51}
{"target":"Cyp2a5 (cytochrome P450, family 2, subfamily a, polypeptide 5)","combined z-score class":"no change with or without drug","viability z-score with doxorubicin":-0.45,"viability z-score without drug":-0.34}
{"target":"Ccdc88b (coiled-coil domain containing 88B)","combined z-score class":"no change with or without drug","viability z-score with doxorubicin":0,"viability z-score without drug":-0.51}
{"target":"Zfp322a (zinc finger protein 322A)","combined z-score class":"no change with or without drug","viability z-score with doxorubicin":0.9,"viability z-score without drug":1.85}
{"target":"Rasa4 (RAS p21 protein activator 4)","combined z-score class":"no change with or without drug","viability z-score with doxorubicin":1.35,"viability z-score without drug":0.34}
{"target":"Ncdn (neurochondrin)","combined z-score class":"no change with or without drug","viability z-score with doxorubicin":0.22,"viability z-score without drug":0.51}
{"target":"Or8g55 (olfactory receptor family 8 subfamily G member 55)","combined z-score class":"low cell count with doxorubicin only (active)","viability z-score with doxorubicin":-2.02,"viability z-score without drug":-0.84}
{"target":"9030203C11Rik (RIKEN cDNA 9030203C11 gene)","combined z-score class":"high cell count with doxorubicin only","viability z-score with doxorubicin":2.25,"viability z-score without drug":0.51}
{"target":"Gata1 (GATA binding protein 1)","combined z-score class":"no change with or without drug","viability z-score with doxorubicin":-0.34,"viability z-score without drug":-1.18}
{"target":"Rap2c (RAP2C, member of RAS oncogene family)","combined z-score class":"high cell count without drug only","viability z-score with doxorubicin":0,"viability z-score without drug":2.19}
{"target":"Slc33a2","combined z-score class":"no change with or without drug","viability z-score with doxorubicin":-1.12,"viability z-score without drug":1.01}

No new results follow: an excerpt of the list.
{"target":"Gata1 (GATA binding protein 1)","combined z-score class":"no change with or without drug","viability z-score with doxorubicin":-0.34,"viability z-score without drug":-1.18}
{"target":"Rap2c (RAP2C, member of RAS oncogene family)","combined z-score class":"high cell count without drug only","viability z-score with doxorubicin":0,"viability z-score without drug":2.19}
{"target":"Slc33a2","combined z-score class":"no change with or without drug","viability z-score with doxorubicin":-1.12,"viability z-score without drug":1.01}
